Data as given in PubChem BioAssay AID244 (DTP/NCI, 2004).
The list shows only some results of the screen, not a fair sample: it covers a few groups of compounds. Not every dose and run of a compound is shown. T/C gives the treated animals as a percentage of the vehicle group. Some doses have a count of surviving animals in place of a T/C: the source holds a T/C of zero for them, seemingly a mark for toxic or unscored doses. Some survivor counts are full or nearly so, which does not show that the dose was tolerated: survival well below the control is almost never listed, so the zero probably covers shortened survival too. Counts of survivors are from the toxicity check (mostly the fifth day) where no day follows; animals may have died later. Schedules are NCI's codes, read here as Q, the interval in days (D) or hours (H), X, the number of doses. Some entries hold several experiments; the values are given in rising order. For survival time, the PubChem record calls one and a half times the control and up active, and a quarter to a half above the control has no call in these data; cut-offs in other NCI protocols can differ. Marks such as (2×) count equal records among those shown. Some T/C values carry the count of animals alive at the toxicity check (mostly the fifth day); where neither a count nor a note follows, no animal had died by that day.

Test system: CD2F1 mice, Lymphoma 8 ip, survival T/C
Assay: NCI In Vivo Anticancer Drug Screen. Data for tumor model Lymphoma 8 (intraperitoneal) in CD2F1 (CDF1) mice
Details: vehicle: saline, higher T/C = longer survival
Method: The antitumor activity of compounds was measured in mice bearing transplantable tumors. Survival or tumor size were measured and the results are expressed as the measurement made in the treated group (T) divided by the measurement made in the vehicle treated control group (C). The tumor model used in this assay is Lymphoma 8 (intraperitoneal) in CD2F1 (CDF1) mice

## CN(N=O)C(=N)N[N+](=O)[O-]
T/C endpoint: survival time, mean or median, dose: 8.0 mg/kg/injection, schedule: Q01DX010 (ip)
  T/C: 105 and 125 % of control
T/C endpoint: survival time, mean or median, dose: 16.0 mg/kg/injection, schedule: Q01DX010 (ip)
  T/C: 110 and 140 % of control
T/C endpoint: survival time, mean or median, dose: 32.0 mg/kg/injection, schedule: Q01DX010 (ip)
  T/C: 90 % of control (2×)
T/C endpoint: survival time, mean or median, dose: 64.0 mg/kg/injection, schedule: Q01DX010 (ip)
  survivor count: 5 of 6 and 6 of 6

## Nc1cc([As]=O)ccc1O (stereo not drawn)
T/C endpoint: median survival time, dose: 12.5 mg/kg/injection, schedule: Q01DX009 (ip)
  T/C: 110 % of control
T/C endpoint: median survival time, dose: 25.0 mg/kg/injection, schedule: Q01DX009 (ip)
  T/C: 116 % of control
T/C endpoint: median survival time, dose: 50.0 mg/kg/injection, schedule: Q01DX009 (ip)
  T/C: 111 % of control [9 of 10 alive]
T/C endpoint: median survival time, dose: 75.0 mg/kg/injection, schedule: Q01DX009 (ip)
  survivor count: 0 of 10
